For experiment [1], the target named is nuclear factor kappa B (NFκB) p65 (rat (endogenous in PC12)) (UniProt Q7TQN4). Briefly: co-IP; endogenous proteins in total lysate of PC12 cells (wild type and Trpm8 knockdown; 37 °C or cold, 4 °C); lysate incubated with NFκB or TRPM8 antibodies at 4 °C for 1-24 h, protein G Plus-Agarose, washed with lysis buffer containing NP-40, Western blot. On the technique in general: Immunoblotting shows a protein as a band on a membrane.

The chains behind the UniProt entries cited, without tags or fusion partners.
UniProt Q7TQN4: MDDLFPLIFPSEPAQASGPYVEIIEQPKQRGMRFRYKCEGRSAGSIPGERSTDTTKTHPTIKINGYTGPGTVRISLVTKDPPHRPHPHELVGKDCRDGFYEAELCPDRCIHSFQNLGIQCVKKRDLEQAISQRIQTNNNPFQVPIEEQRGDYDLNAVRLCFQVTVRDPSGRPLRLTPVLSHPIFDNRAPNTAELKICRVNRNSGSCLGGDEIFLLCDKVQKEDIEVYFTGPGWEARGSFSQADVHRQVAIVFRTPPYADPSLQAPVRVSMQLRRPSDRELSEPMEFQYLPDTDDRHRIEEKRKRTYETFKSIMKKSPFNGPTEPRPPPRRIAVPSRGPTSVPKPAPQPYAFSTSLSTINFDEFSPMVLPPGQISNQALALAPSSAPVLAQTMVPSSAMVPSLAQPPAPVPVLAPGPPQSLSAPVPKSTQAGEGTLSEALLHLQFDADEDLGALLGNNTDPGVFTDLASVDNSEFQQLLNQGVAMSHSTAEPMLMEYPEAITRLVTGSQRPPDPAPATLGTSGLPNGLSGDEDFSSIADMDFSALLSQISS
UniProt Q8R455: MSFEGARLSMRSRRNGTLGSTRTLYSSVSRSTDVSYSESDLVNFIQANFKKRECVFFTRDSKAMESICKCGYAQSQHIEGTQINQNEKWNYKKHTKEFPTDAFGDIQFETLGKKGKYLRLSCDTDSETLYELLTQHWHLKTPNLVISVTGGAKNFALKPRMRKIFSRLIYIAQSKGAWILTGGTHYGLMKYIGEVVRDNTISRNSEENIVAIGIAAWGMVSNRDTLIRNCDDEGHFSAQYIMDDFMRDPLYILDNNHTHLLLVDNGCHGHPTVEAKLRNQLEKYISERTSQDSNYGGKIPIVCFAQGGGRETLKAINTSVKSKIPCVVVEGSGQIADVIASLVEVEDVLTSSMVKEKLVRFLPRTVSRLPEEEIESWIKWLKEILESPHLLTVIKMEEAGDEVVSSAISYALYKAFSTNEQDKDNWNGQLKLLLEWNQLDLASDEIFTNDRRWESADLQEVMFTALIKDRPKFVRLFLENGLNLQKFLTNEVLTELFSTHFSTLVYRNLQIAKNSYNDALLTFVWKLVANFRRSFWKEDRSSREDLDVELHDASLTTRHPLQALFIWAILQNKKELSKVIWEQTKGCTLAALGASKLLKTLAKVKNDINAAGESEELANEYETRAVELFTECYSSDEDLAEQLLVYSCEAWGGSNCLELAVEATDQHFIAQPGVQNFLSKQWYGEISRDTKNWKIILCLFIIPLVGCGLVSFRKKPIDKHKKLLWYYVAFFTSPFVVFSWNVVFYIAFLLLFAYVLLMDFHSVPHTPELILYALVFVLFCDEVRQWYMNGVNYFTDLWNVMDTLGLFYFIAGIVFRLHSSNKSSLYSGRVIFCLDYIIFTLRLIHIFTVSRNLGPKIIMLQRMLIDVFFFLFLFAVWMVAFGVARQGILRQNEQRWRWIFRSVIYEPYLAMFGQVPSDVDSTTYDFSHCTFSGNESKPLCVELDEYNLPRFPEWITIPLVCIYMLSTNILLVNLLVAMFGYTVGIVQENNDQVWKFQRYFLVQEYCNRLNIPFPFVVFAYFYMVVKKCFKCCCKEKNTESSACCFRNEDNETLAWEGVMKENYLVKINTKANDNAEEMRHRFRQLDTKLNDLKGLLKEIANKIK

Experiment [2] addresses Transient Receptor Potential Melastatin-8 (TRPM8) (rat (endogenous in PC12)) (UniProt Q8R455). Described as above.

Results are given in words; binding and its absence hold for the method and conditions named. In cells and extracts the contact can be indirect. Some results given as binding are weak or reduced against the parent protein; the word gives no strength.

“Transient Receptor Potential Melastatin-8 (TRPM8) (from UniProt Q8R455 1-1104)”: the binding result in experiment [1] is listed as “binds”.

With “nuclear factor kappa B (NFκB) p65 (from UniProt Q7TQN4 1-550)”, the binding result in experiment [2] is given as “binds”.
